Experimental data published in the supplement of paper PMC12889115.
The list shows a part of the results. Values are raw readings; no control value is given beside them.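 In the initial screen, polymyxin B was used at a concentration that permeabilizes Salmonella's outer membrane but not its inner membrane. Maximum growth was set by DMSO wells with or without polymyxin B. Since plates varied, data were ranked per plate, and compounds giving the lowest OD600 advanced as hits.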

Tested on: Salmonella enterica serovar Typhimurium SL1344
Assay: bacterial growth OD600 after 18 h with compound and polymyxin B; higher = more bacterial growth (less inhibition)
Settings: 50 µM, Mueller-Hinton broth

Structure (SMILES) | bacterial growth OD600 (polymyxin B 0.75 µg/mL) | bacterial growth OD600 (polymyxin B 1 µg/mL)
COc1cccc(CN(C)Cc2c(C(=O)N3CCCCCC3)nc3cc(C)ccn23)c1 | 0.003 | 
CC(c1ccccn1)N(C)C(=O)c1cc(COc2cccc3cnccc23)on1 (centres undefined) |  | 1.01
O=C(NC(C1CC1)C1CC1)C1CCC(=O)N(CCCN2CCCC2=O)C1 (centres undefined) |  | 0.998
COC(=O)CC(NC1CCN(c2ccc(NC(=O)c3ccc(OC)cc3)cc2)CC1)C(=O)OC (centres undefined) | 0.855 | 
CN(Cc1ccccc1)C1CCCN(C(=O)CCC(=O)c2ccc(F)cc2)C1 (centres undefined) | 0.827 | 
c1cnn(CCCNc2nc3nonc3nc2N2CCCCCC2)c1 |  | 0.894
COCC(=O)Nc1cc(C(=O)N(C)Cc2nonc2C)c2c(c1)ncn2Cc1ccc(F)cc1 | 0.844 | 
O=C(NC1CCS(=O)(=O)C1)c1ccc2oc(CCCc3ccccc3)nc2c1 (centres undefined) |  | 0.942
Cc1cnc(N2CCC(C3CCN(CC(C)(C)C)C3)CC2)nc1N (centres undefined) | 0.777 | 
O=C1N(Cc2cccc(F)c2F)CCCC1(O)CN1CCN(CC2CC2)CC1 (centres undefined) |  | 0.913
Cc1c(C(C)NCc2cc3c(cc2Cl)OCO3)cnn1-c1ccccc1 (centres undefined) |  | 0.992
CCN1CCN(CC(=O)NCc2ccc3[nH]c4c(c3c2)CCCC4)CC1 |  | 0.987
Cc1nn(C)cc1[C@@H]1C[C@H]2CN(Cc3cccc(Cl)c3)C(=O)[C@]23CCCN13 |  | 0.906
COCCC(=O)N1CCC(Oc2ccc(C(=O)N3CCCCC3CCCO)cc2)CC1 (centres undefined) |  | 0.998
COc1cccc(CN2CCCC(O)(CN3CCSCC3)C2=O)c1 (centres undefined) |  | 0.823
O=C(C1CC1)N1CCC(N2CCCC(C(=O)N3CCc4ccccc4C3)C2)CC1 (centres undefined) | 0.786 | 
CCN1CC(CN(C)Cc2cn(-c3ccccc3)nc2-c2ccc(OC)cc2F)CC1=O (centres undefined) |  | 0.762
Cc1ccc(CC2(CCC(=O)N3CCC(OCc4ccccc4)CC3)CCC(=O)N2)cc1 (centres undefined) | 0.823 | 
Cc1c(CC(=O)NC2CCC2)c2c(n1CCc1ccccc1)CCCC2=O |  | 0.57

Given comma-delimited: entries from further up
Structure (SMILES),bacterial growth OD600 (polymyxin B 0.75 µg/mL),bacterial growth OD600 (polymyxin B 1 µg/mL)
COc1cccc(CN2CCCC(O)(CN3CCSCC3)C2=O)c1 (centres undefined),,0.823
O=C(C1CC1)N1CCC(N2CCCC(C(=O)N3CCc4ccccc4C3)C2)CC1 (centres undefined),0.786,
CCN1CC(CN(C)Cc2cn(-c3ccccc3)nc2-c2ccc(OC)cc2F)CC1=O (centres undefined),,0.762
Cc1ccc(CC2(CCC(=O)N3CCC(OCc4ccccc4)CC3)CCC(=O)N2)cc1 (centres undefined),0.823,
Cc1c(CC(=O)NC2CCC2)c2c(n1CCc1ccccc1)CCCC2=O,,0.57
